Experimental data: paper PMC11312810
Results are given in words; binding and its absence hold for the method and conditions named. Binding seen in cells or lysates may run through a third protein. Some entries that bind do so weakly or less than the wild type. For some assays here: Sequences can lack the tags named with a protein.

Amino acid sequences for entries named in this document (tags omitted).
UniProt Q9H4L4: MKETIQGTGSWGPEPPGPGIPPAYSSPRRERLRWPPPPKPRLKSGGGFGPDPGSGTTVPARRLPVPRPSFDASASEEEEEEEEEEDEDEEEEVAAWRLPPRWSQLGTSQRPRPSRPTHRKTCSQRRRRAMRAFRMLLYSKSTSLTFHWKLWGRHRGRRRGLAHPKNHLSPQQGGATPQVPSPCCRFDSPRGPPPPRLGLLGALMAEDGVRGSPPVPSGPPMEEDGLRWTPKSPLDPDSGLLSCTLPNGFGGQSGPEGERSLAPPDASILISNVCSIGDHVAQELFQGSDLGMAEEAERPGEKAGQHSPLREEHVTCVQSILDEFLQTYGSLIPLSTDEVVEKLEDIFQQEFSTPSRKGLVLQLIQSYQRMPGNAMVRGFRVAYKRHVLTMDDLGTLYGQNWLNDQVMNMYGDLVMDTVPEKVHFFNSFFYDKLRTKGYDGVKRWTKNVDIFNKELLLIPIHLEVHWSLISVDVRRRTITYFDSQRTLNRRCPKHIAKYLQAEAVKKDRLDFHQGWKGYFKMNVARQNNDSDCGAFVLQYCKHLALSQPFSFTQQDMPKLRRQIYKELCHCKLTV

Columns and labels:
[1] = molecular target: T1, FLAG-IRF4 (UniProt Q15306); assay: co-IP; HEK293T cells transfected with Myc-SENP3 and FLAG-IRF4 for 48 h; whole cell lysate with anti-Flag magnetic beads overnight at 4 C, washed 5 times; immunoblot with FLAG and Myc antibodies
T1 sequence: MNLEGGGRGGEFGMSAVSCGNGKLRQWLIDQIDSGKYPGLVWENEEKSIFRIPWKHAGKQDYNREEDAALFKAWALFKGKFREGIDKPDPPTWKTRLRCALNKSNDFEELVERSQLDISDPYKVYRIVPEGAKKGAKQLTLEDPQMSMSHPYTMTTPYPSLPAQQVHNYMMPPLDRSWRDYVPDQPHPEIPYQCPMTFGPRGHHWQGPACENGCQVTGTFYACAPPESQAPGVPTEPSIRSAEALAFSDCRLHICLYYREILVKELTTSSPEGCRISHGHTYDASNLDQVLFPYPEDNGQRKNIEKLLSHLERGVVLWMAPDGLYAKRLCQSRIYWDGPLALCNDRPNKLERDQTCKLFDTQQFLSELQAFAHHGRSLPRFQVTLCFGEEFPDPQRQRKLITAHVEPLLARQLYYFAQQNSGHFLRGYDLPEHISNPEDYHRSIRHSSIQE

[2] = molecular target: T2, IRF4 (endogenous, THP-1-derived macrophages) (human (endogenous in THP-1)) (UniProt Q15306); assay: co-IP; THP-1 cells after PMA 48 h (M0), then IL-4 and IL-13 48 h (M2); whole-cell lysates, IRF4 antibody on Protein A/G magnetic beads, 4 C 4 h; immunoblot with SUMO2/3, SENP3 and IRF4 antibodies
T2 sequence: T1 sequence

Row | Substance | binding [1] | binding [2]
1 | Myc-SENP3 (from UniProt Q9H4L4 1-574) (enzyme) | binds | 
2 | SENP3 (endogenous, THP-1-derived macrophages) (from UniProt Q9H4L4 1-574) (enzyme) |  | binds
